PubChem BioAssay AID652243, Drosophila RNAi Screening Center – 2013
The deposit covers about 24,000 reagents; below is an unselected part of those that have a named target and a result. In the full data, 246 (1%) were called active. 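Plates not normalised; calls are printed but the firefly/Renilla ratio behind them is not deposited; fold cut for lowering reported inconsistently.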 Raw values are not corrected between plates. Reagents against one gene are numbered here. Not stated in the record: the amount of reagent.

- Aim: 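Fly genes required for human androgen receptor driven transcription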 (primary screen)
- Cells: Drosophila S2R+ cells
- Reagents: long dsRNA against Drosophila genes
- Timing: 72 h (48 h, then 24 h hormone)
- Treatment: synthetic androgen R1881 at 10 nM for 24 h
- Measured: 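Per-well raw luminescence of the androgen-driven firefly reporter and of the Renilla control, two replicates each, without normalisation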
- Reading the numbers: firefly reporter light: higher = more light from androgen-responsive reporter; Renilla control light: higher = more constitutive control signal (cell number, transfection)
- Rule for the call: 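Across duplicate plates, a knock-down whose log firefly/Renilla ratio shifted a set fold down or up from the GFP/LacZ control mean was a hit; the downward cut appears as both 1.5 and 3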
- Calls: active = hit: reporter lowered or raised; inactive = no hit

Knock-down of Vps20 (GeneID 37581) resulted in: firefly reporter light, replicate 1 = 1.52e5; firefly reporter light, replicate 2 = 1.52e5; Renilla control light, replicate 1 = 1.61e6; Renilla control light, replicate 2 = 1.66e6; active.
Pgant8 (GeneID 39715) #1 scored firefly reporter light, replicate 1 = 1.38e5; firefly reporter light, replicate 2 = 1.80e5; Renilla control light, replicate 1 = 1.64e6; Renilla control light, replicate 2 = 1.38e6; inactive.
Pgant8 (GeneID 39715) #2 showed firefly reporter light, replicate 1 = 4.00e5; firefly reporter light, replicate 2 = 3.75e5; Renilla control light, replicate 1 = 6.14e5; Renilla control light, replicate 2 = 7.55e5; inactive.
CG31296 (GeneID 318668) showed firefly reporter light, replicate 1 = 67333; firefly reporter light, replicate 2 = 72076; Renilla control light, replicate 1 = 96659; Renilla control light, replicate 2 = 1.44e5; inactive.
Depletion of Arpc3B (GeneID 32696) #1 came out at: firefly reporter light, replicate 1 = 4.42e5; firefly reporter light, replicate 2 = 3.56e5; Renilla control light, replicate 1 = 2.90e6; Renilla control light, replicate 2 = 1.60e6; inactive.
Against Arpc3B (GeneID 32696) #2 the deposit lists firefly reporter light, replicate 1 = 1.78e5; firefly reporter light, replicate 2 = 4.62e5; Renilla control light, replicate 1 = 5.65e5; Renilla control light, replicate 2 = 1.26e6; inactive.
After knock-down of CG18649 (GeneID 39636), the screen gave firefly reporter light, replicate 1 = 2.66e5; firefly reporter light, replicate 2 = 1.75e5; Renilla control light, replicate 1 = 2.18e6; Renilla control light, replicate 2 = 1.95e6; inactive.
With knock-down of Tsp42Ej (GeneID 35620) #1 the results were firefly reporter light, replicate 1 = 9.87e5; firefly reporter light, replicate 2 = 9.39e5; Renilla control light, replicate 1 = 1.38e6; Renilla control light, replicate 2 = 1.35e6; inactive.
Tsp42Ej (GeneID 35620) #2 showed firefly reporter light, replicate 1 = 4.01e5; firefly reporter light, replicate 2 = 8.11e5; Renilla control light, replicate 1 = 8.86e5; Renilla control light, replicate 2 = 1.57e6; inactive.

Targets above whose gene name begins with A or a:
Arpc3B (GeneID 32696) #1: firefly reporter light, replicate 1 = 4.42e5; firefly reporter light, replicate 2 = 3.56e5; Renilla control light, replicate 1 = 2.90e6; Renilla control light, replicate 2 = 1.60e6; call = inactive
Arpc3B (GeneID 32696) #2: firefly reporter light, replicate 1 = 1.78e5; firefly reporter light, replicate 2 = 4.62e5; Renilla control light, replicate 1 = 5.65e5; Renilla control light, replicate 2 = 1.26e6; call = inactive

The listing continues:
After knock-down of Spn53F (GeneID 36931), the record shows firefly reporter light, replicate 1 = 1.03e5; firefly reporter light, replicate 2 = 81444; Renilla control light, replicate 1 = 1.99e6; Renilla control light, replicate 2 = 1.99e6; inactive.
Knock-down of eIF1 (GeneID 38398) #1 gave: firefly reporter light, replicate 1 = 1.75e5; firefly reporter light, replicate 2 = 2.03e5; Renilla control light, replicate 1 = 1.75e6; Renilla control light, replicate 2 = 2.58e6; inactive.
eIF1 (GeneID 38398) #2 gave firefly reporter light, replicate 1 = 6.32e5; firefly reporter light, replicate 2 = 6.10e5; Renilla control light, replicate 1 = 1.20e6; Renilla control light, replicate 2 = 1.14e6; inactive.
With knock-down of tub (GeneID 40554) #1 the results were firefly reporter light, replicate 1 = 4.28e5; firefly reporter light, replicate 2 = 3.73e5; Renilla control light, replicate 1 = 4.49e6; Renilla control light, replicate 2 = 3.45e6; inactive.
After knock-down of tub (GeneID 40554) #2, the record shows firefly reporter light, replicate 1 = 5.34e5; firefly reporter light, replicate 2 = 7.31e5; Renilla control light, replicate 1 = 5.70e5; Renilla control light, replicate 2 = 6.39e5; inactive.
After knock-down of CG13829 (GeneID 42740), the screen gave firefly reporter light, replicate 1 = 3.32e5; firefly reporter light, replicate 2 = 3.68e5; Renilla control light, replicate 1 = 2.12e6; Renilla control light, replicate 2 = 2.05e6; inactive.
CG9932 (GeneID 34701) gave firefly reporter light, replicate 1 = 2.40e5; firefly reporter light, replicate 2 = 1.85e5; Renilla control light, replicate 1 = 1.34e6; Renilla control light, replicate 2 = 9.61e5; inactive.
With knock-down of CG5815 (GeneID 43266) #1, the screen gave firefly reporter light, replicate 1 = 1.89e5; firefly reporter light, replicate 2 = 1.73e5; Renilla control light, replicate 1 = 3.21e6; Renilla control light, replicate 2 = 3.14e6; inactive.
CG5815 (GeneID 43266) #2 showed firefly reporter light, replicate 1 = 1.21e6; firefly reporter light, replicate 2 = 8.69e5; Renilla control light, replicate 1 = 2.92e6; Renilla control light, replicate 2 = 1.09e6; inactive.
For CG4537 (GeneID 34306), the values are firefly reporter light, replicate 1 = 2.17e5; firefly reporter light, replicate 2 = 2.79e5; Renilla control light, replicate 1 = 1.80e6; Renilla control light, replicate 2 = 1.79e6; inactive.
Knock-down of pall (GeneID 39104) resulted in: firefly reporter light, replicate 1 = 1.50e6; firefly reporter light, replicate 2 = 3.85e5; Renilla control light, replicate 1 = 1.12e6; Renilla control light, replicate 2 = 4.52e5; inactive.
Silencing of CG7742 (GeneID 33750) came out at: firefly reporter light, replicate 1 = 6.96e5; firefly reporter light, replicate 2 = 8.50e5; Renilla control light, replicate 1 = 1.15e6; Renilla control light, replicate 2 = 1.29e6; inactive.
For Pask (GeneID 37824) #1 the deposit lists firefly reporter light, replicate 1 = 1.26e6; firefly reporter light, replicate 2 = 4.95e5; Renilla control light, replicate 1 = 1.71e6; Renilla control light, replicate 2 = 1.17e6; inactive.
Pask (GeneID 37824) #2 gave firefly reporter light, replicate 1 = 5.92e5; firefly reporter light, replicate 2 = 3.62e5; Renilla control light, replicate 1 = 9.87e5; Renilla control light, replicate 2 = 1.22e6; active.
For Pask (GeneID 37824) #3, the entry reads inactive.
For Pask (GeneID 37824) #4, the values are inactive.
Silencing of pen-2 (GeneID 251430) came out at: firefly reporter light, replicate 1 = 3.81e5; firefly reporter light, replicate 2 = 4.57e5; Renilla control light, replicate 1 = 9.16e5; Renilla control light, replicate 2 = 1.60e5; inactive.
For tweek (GeneID 35026) #1, the values are firefly reporter light, replicate 1 = 1.56e5; firefly reporter light, replicate 2 = 1.71e5; Renilla control light, replicate 1 = 1.82e6; Renilla control light, replicate 2 = 2.42e6; inactive.
tweek (GeneID 35026) #2 gave firefly reporter light, replicate 1 = 1.38e5; firefly reporter light, replicate 2 = 1.63e5; Renilla control light, replicate 1 = 1.51e6; Renilla control light, replicate 2 = 1.72e6; inactive.
Knock-down of tweek (GeneID 35026) #3 came out at: firefly reporter light, replicate 1 = 8.24e5; firefly reporter light, replicate 2 = 8.79e5; Renilla control light, replicate 1 = 3.52e5; Renilla control light, replicate 2 = 3.62e5; inactive.
